From paper PMC12240770
These are yes or no findings as the source states them, for the method shown. Binding seen in cells or lysates may run through a third protein. For some assays here: Binding can be weak; no strength is given. Where a sequence is shown, tags or fusion partners need not be part of it.

Assays:
[1] = molecular target: Flag-FTO C-terminal fragment (FTO-C) (mouse); test: co-IP; HEK293T transfected with Flag-Fto constructs for 48 h (with HA-K48 and Myc-Ogt WT or K908A in Figure 6I); IP with anti-Flag; immunoblot for OGT or TRIM21 for which the legend names no plasmid
[2] = molecular target: Flag-FTO N-terminal fragment (FTO-N) (mouse); test: as above

B1: OGT detected with anti-OGT in HEK293T cells transfected with Flag-Fto constructs only (enzyme, UniProt O15294 1-1046)
chain: MASSVGNVADSTEPTKRMLSFQGLAELAHREYQAGDFEAAERHCMQLWRQEPDNTGVLLLLSSIHFQCRRLDRSAHFSTLAIKQNPLLAEAYSNLGNVYKERGQLQEAIEHYRHALRLKPDFIDGYINLAAALVAAGDMEGAVQAYVSALQYNPDLYCVRSDLGNLLKALGRLEEAKACYLKAIETQPNFAVAWSNLGCVFNAQGEIWLAIHHFEKAVTLDPNFLDAYINLGNVLKEARIFDRAVAAYLRALSLSPNHAVVHGNLACVYYEQGLIDLAIDTYRRAIELQPHFPDAYCNLANALKEKGSVAEAEDCYNTALRLCPTHADSLNNLANIKREQGNIEEAVRLYRKALEVFPEFAAAHSNLASVLQQQGKLQEALMHYKEAIRISPTFADAYSNMGNTLKEMQDVQGALQCYTRAIQINPAFADAHSNLASIHKDSGNIPEAIASYRTALKLKPDFPDAYCNLAHCLQIVCDWTDYDERMKKLVSIVADQLEKNRLPSVHPHHSMLYPLSHGFRKAIAERHGNLCLDKINVLHKPPYEHPKDLKLSDGRLRVGYVSSDFGNHPTSHLMQSIPGMHNPDKFEVFCYALSPDDGTNFRVKVMAEANHFIDLSQIPCNGKAADRIHQDGIHILVNMNGYTKGARNELFALRPAPIQAMWLGYPGTSGALFMDYIITDQETSPAEVAEQYSEKLAYMPHTFFIGDHANMFPHLKKKAVIDFKSNGHIYDNRIVLNGIDLKAFLDSLPDVKIVKMKCPDGGDNADSSNTALNMPVIPMNTIAEAVIEMINRGQIQITINGFSISNGLATTQINNKAATGEEVPRTIIVTTRSQYGLPEDAIVYCNFNQLYKIDPSTLQMWANILKRVPNSVLWLLRFPAVGEPNIQQYAQNMGLPQNRIIFSPVAPKEEHVRRGQLADVCLDTPLCNGHTTGMDVLWAGTPMVTMPGETLASRVAASQLTCLGCLELIAKNRQEYEDIAVKLGTDLEYLKKVRGKVWKQRISSPLFNTKQYTMELERLYLQMWEHYAAGNKPDHMIKPVEVTESA
In the case of B1, the binding [1] is reported as “no binding” and the binding [2] is reported as “binds”.
